# Experimental data: the supplement of paper PMC6414424
# Structures can show the parent of a compound that is named as a salt. ± gives the standard deviation of the averaged measurements. Some of the results follow.
# Tested on: APPdp1-6 iPSC-derived neurons
# Assay: pThr231Tau/total Tau ratio Z-score vs DMSO vehicle wells; higher = more pThr231Tau relative to total Tau
# Settings: 5 µM; treatment time 5 days
row,Structure (SMILES),pThr231Tau/total Tau ratio Z-score
1,COc1cccc(OC)c1C(=O)N[C@@H]1C(=O)N2[C@@H]1SC(C)(C)[C@@H]2C(=O)O [METHICILLIN SODIUM    Therap cat: antibacterial],0.744 ± 1.4
2,Cc1ccc(S(=O)(=O)NC(=O)NN2CCCCCC2)cc1 [Prestw-554],0.537 ± 0.88
3,CC(C)(C)CC(C)(C)c1ccc(O)c(Cc2ccc(Cl)cc2Cl)c1 [CLOFOCTOL    Therap cat: antibacterial],0.303 ± 2.1
4,OC(CCCN1CCCCC1)(c1ccccc1)c1ccccc1 [Prestw-252],-1.14 ± 0.54
5,CCN(CC)CCOC(=O)C(c1ccccc1)c1ccccc1 [Prestw-75],-0.274 ± 0.068
6,CCOC(=O)c1ccc(N)cc1 [Prestw-712],-0.773 ± 0.58
7,Nc1nc(NC2CC2)c2ncn([C@H]3C=C[C@@H](CO)C3)c2n1 [Prestw-1512],-0.134 ± 0.33
8,O=C(COc1ccc(Cl)cc1)N1CCN(Cc2ccc3c(c2)OCO3)CC1 [Prestw-298],0.644 ± 1.4
9,CNC(C)CCC=C(C)C (stereo not drawn) [Prestw-1023],1.33 ± 0.36
10,CN(Cc1cnc2nc(N)nc(N)c2n1)c1ccc(C(=O)N[C@@H](CCC(=O)O)C(=O)O)cc1 [Prestw-373],0.939 ± 0.79
11,CN(Cc1cnc2nc(N)nc(N)c2n1)c1ccc(C(=O)N[C@@H](CCC(=O)O)C(=O)O)cc1 [Prestw-135],0.881 ± 1.1
12,CCOc1ccc2nc3cc(N)ccc3c(N)c2c1,-2.67 ± 0.13
13,CCN(CC)CCNc1ccc(CO)c2sc3ccccc3c(=O)c12 [Prestw-355],-1.29 ± 1.2
14,Cc1ccsc1/C=C/C1=NCCCN1C [Prestw-61],0.0271 ± 0.85
15,COc1cc(C=CC(=O)O)cc(OC)c1O,-0.0194 ± 0.56
16,Cc1cnc(C(=O)NCCc2ccc(S(=O)(=O)NC(=O)NC3CCCCC3)cc2)cn1 [Prestw-131],1.52 ± 0.63
17,"O=C1[C@H](CC[C@H](O)c2ccc(F)cc2)[C@@H](c2ccc(O)cc2)N1c1ccc(F)cc1 [EZETIMIBE, sterol absorption inhibitor]",1.39 ± 0.25
18,O=S(=O)(O)c1cc(I)c(O)c2ncccc12,-0.422 ± 0.68
19,COc1ccccc1N1CCN(CCCCNC(=O)c2ccc3ccccc3c2)CC1 [Prestw-559],-0.0907 ± 0.047
20,CCC1NC(=O)c2cc(S(N)(=O)=O)c(Cl)cc2N1 (stereo not drawn) [Prestw-1050],-0.518 ± 0.093
21,CC(O)(P(=O)(O)O)P(=O)(O)O [Prestw-863],0.0236 ± 0.71
22,CCN(CC)CCOc1ccc(C(=C(Cl)c2ccccc2)c2ccccc2)cc1 [Prestw-397],-1.47 ± 1.7
23,CCCCNc1ccc(C(=O)OCCN(C)C)cc1 [Prestw-571],-0.64 ± 0.23
24,CN1CCOC(c2ccccc2)c2ccccc2C1 (stereo not drawn) [Prestw-229],0.241 ± 0.65
25,COC(=O)Nc1nc2ccc(C(=O)c3ccc(F)cc3)cc2[nH]1 [Prestw-1416],-4.12 ± 0.1
26,CN1CCC(=C2c3ccccc3CCc3sccc32)CC1 [Prestw-992],1.44 ± 3.5

# 4 entries from above, as tab-separated lines:
row	Structure (SMILES)	pThr231Tau/total Tau ratio Z-score
4	OC(CCCN1CCCCC1)(c1ccccc1)c1ccccc1 [Prestw-252]	-1.14 ± 0.54
12	CCOc1ccc2nc3cc(N)ccc3c(N)c2c1	-2.67 ± 0.13
19	COc1ccccc1N1CCN(CCCCNC(=O)c2ccc3ccccc3c2)CC1 [Prestw-559]	-0.0907 ± 0.047
20	CCC1NC(=O)c2cc(S(N)(=O)=O)c(Cl)cc2N1 (stereo not drawn) [Prestw-1050]	-0.518 ± 0.093

# Next part.

row,Structure (SMILES),pThr231Tau/total Tau ratio Z-score
1,Cc1ccccc1C(OCCN(C)C)c1ccccc1 (stereo not drawn) [Prestw-239],0.0199 ± 0.7
2,NC(=O)NC1NC(=O)NC1=O (stereo not drawn) [Prestw-2],0.593 ± 0.61
3,CN(C)CCOC(c1ccc(Cl)cc1)c1ccccn1 (stereo not drawn) [Prestw-801],0.148 ± 1.5
4,O=C1CCc2ccc(OCCCCN3CCN(c4cccc(Cl)c4Cl)CC3)cc2N1 [Prestw-1229],1.37 ± 0.61
5,COc1c2ccoc2cc2oc(=O)ccc12,-0.194 ± 0.33
6,COC(=O)C1=C(C)NC(C)=C(C(=O)OCC(C)C)C1c1ccccc1[N+](=O)[O-] (stereo not drawn) [Prestw-666],-0.482 ± 1.3
7,CC1=CC(=C(c2ccc(N)c(C)c2)c2ccc(N)c(C)c2)C=CC1=N,-5.34 ± 1.3
8,COC(=O)C1=C(C)NC(C)=C(C(=O)OCCN(C)Cc2ccccc2)C1c1cccc([N+](=O)[O-])c1 (stereo not drawn) [Prestw-383],0.707 ± 1.1
9,C/C=C(/C)C(=O)O[C@H]1[C@H](OC(C)=O)[C@@]2(CO)C(CC1(C)C)C1=CCC3[C@@]4(C)CCC(O[C@@H]5O[C@H](C(=O)O)[C@@H](O[C@@H]6O[C@H](CO)[C@@H](O)[C@H](O)[C@H]6O)[C@H](O)[C@H]5O[C@@H]5O[C@H](CO)[C@@H](O)[C@H](O)[C@H]5O)[C@](C)(CO)C4CC[C@@]3(C)[C@]1(C)C[C@H]2O.C/C=C(\C)C(=O)O[C@H]1[C@H](OC(C)=O)[C@@]2(CO)C(CC1(C)C)C1=CCC3[C@@]4(C)CCC(O[C@@H]5O[C@H](C(=O)O)[C@@H](O[C@@H]6O[C@H](CO)[C@@H](O)[C@H](O)[C@H]6O)[C@H](O)[C@H]5O[C@@H]5O[C@H](CO)[C@@H](O)[C@H](O)[C@H]5O)[C@](C)(CO)C4CC[C@@]3(C)[C@]1(C)C[C@H]2O (stereo partly drawn),-1.99 ± 0.31
10,CN1CCN(c2c(F)cc3c(=O)c(C(=O)O)cn4c3c2SCC4)CC1 [Prestw-1338],-0.444 ± 0.89
11,CN1CCC[C@@H]1CCO[C@](C)(c1ccccc1)c1ccc(Cl)cc1 [Prestw-306],0.89 ± 3.2
12,CCOc1ccc(NC(C)=O)cc1 [Prestw-533],0.429 ± 0.079
13,COc1cc2ncnc(Nc3ccc(F)c(Cl)c3)c2cc1OCCCN1CCOCC1 [Prestw-1270],-0.986 ± 1.3
14,CC(C(=O)O)c1ccc(C(=O)c2cccs2)cc1 (stereo not drawn) [Prestw-816],0.451 ± 0.33
15,CCN1CCC[C@H]1CNC(=O)c1c(O)c(Cl)cc(Cl)c1OC [Prestw-1325],-0.93 ± 1.2
16,"O=C(O)c1ccccc1 [BENZOIC ACID, antifungal]",-0.223 ± 0.51
17,NCc1ccc(S(N)(=O)=O)cc1 [Prestw-166],0.471 ± 0.49
18,CCc1oc2ccccc2c1C(=O)c1cc(Br)c(O)c(Br)c1 [Prestw-370],-0.438 ± 0.4
19,CC/C(=C(\c1ccccc1)c1ccc(OCCN(C)C)cc1)c1ccccc1 [Prestw-146],-1.84 ± 0.47
20,C#C[C@]1(O)CC[C@H]2[C@@H]3CCC4=C(CCC(=O)C4)[C@H]3CC[C@@]21C [Prestw-24],-0.678 ± 1.4
21,CC[N+](CC)(CC)CCOc1cccc(OCC[N+](CC)(CC)CC)c1OCC[N+](CC)(CC)CC [Prestw-157],0.292 ± 0.11
22,CCOC(=O)[N-]c1c[n+](N2CCOCC2)no1 [Prestw-547],-0.152 ± 0.45
23,NS(=O)(=O)c1cc2c(cc1Cl)NC(CC1CCCC1)NS2(=O)=O (stereo not drawn) [Prestw-994],-0.306 ± 0.82
24,CC(C)(C)NCC(O)c1cc(O)cc(O)c1 (stereo not drawn) [Prestw-391],0.612 ± 0.3
25,O=C(OCCOCCO)c1ccccc1Nc1cccc(C(F)(F)F)c1 [Prestw-1407],0.889 ± 0.048
26,"CC1=C(C/C=C(\C)CCC[C@H](C)CCC[C@H](C)CCCC(C)C)C(=O)c2ccccc2C1=O [PHYTONADIONE, vitamin]",-0.54 ± 0.62

row,Structure (SMILES),pThr231Tau/total Tau ratio Z-score
1,O=C(O)[C@H]1/C(=C/CO)O[C@@H]2CC(=O)N21 [Prestw-1315],0.00472 ± 0.71
2,CC(=O)Nc1cccc(O)c1 [METACETAMOL    Therap cat: analgesic],-1.47 ± 0.19
3,Cc1cnc(C(=O)O)c[n+]1[O-] [Prestw-1127],1.19 ± 1.4
4,O=C(O)C1(C(=O)O)CCC1.[NH2-].[NH2-].[Pt+2] [Antineoplastic],1.44 ± 2.1
5,CC(C)(C)NC[C@H](O)COc1ccccc1C1CCCC1 [Prestw-1043],-0.745 ± 0.15
6,CC(C)(C)NCC(O)COc1cccc2c1C[C@H](O)[C@H](O)C2 (stereo partly drawn) [Prestw-818],0.754 ± 0.34
7,COc1ccc(C(=O)c2ccccc2O)c(O)c1 [Prestw-898],0.198 ± 0.75
8,COCCc1ccc(OCC(O)CNC(C)C)cc1 (stereo not drawn) [Prestw-733],-1.04 ± 0.74
9,CC(=O)SCC(Cc1ccccc1)C(=O)NCC(=O)OCc1ccccc1 (stereo not drawn) [Prestw-626],0.108 ± 0.068
10,C[C@H](CCC(=O)O)[C@H]1CC[C@H]2[C@@H]3CC[C@@H]4C[C@H](O)CC[C@]4(C)[C@H]3CC[C@]12C [Prestw-796],-0.948 ± 1.6
11,COC(=O)C1=C(C)NC(C)=C(C(=O)OC(C)C)C1c1cccc2nonc12 (stereo not drawn) [Prestw-1021],-1.3 ± 0.42
12,COCC(=O)Nc1c(I)c(C(=O)NCC(O)CO)c(I)c(C(=O)N(C)CC(O)CO)c1I (stereo not drawn) [Prestw-872],-1 ± 0.28
13,O=C(O)CCCC[C@@H]1SC[C@@H]2NC(=O)N[C@@H]21 [Prestw-418],0.45 ± 1.1
14,N[C@@H](CSSC[C@H](N)C(=O)O)C(=O)O,-0.246 ± 0.24
15,CC(C)C(=O)Nc1ccc([N+](=O)[O-])c(C(F)(F)F)c1 [Prestw-180],1.77 ± 0.23
16,CN(C)[C@@H]1C(=O)C(C(N)=O)=C(O)[C@@]2(O)C(=O)C3=C(O)c4c(O)ccc(Cl)c4[C@@H](O)[C@H]3C[C@@H]12 [Prestw-753],0.379 ± 1.2
17,CC(=O)OCC[N+](C)(C)C [Acetylcholine],0.576 ± 1
18,OCCN1C[C@H](O)[C@@H](O)[C@H](O)[C@H]1CO [Prestw-1169],0.345 ± 0.69
19,COc1ccc2nc([S+]([O-])Cc3ncc(C)c(OC)c3C)[nH]c2c1 (stereo not drawn) [Prestw-493],0.966 ± 0.66
20,NCC[C@H](O)C(=O)N[C@@H]1C[C@H](N)[C@@H](O[C@H]2O[C@H](CN)[C@@H](O)[C@H](O)[C@H]2O)[C@H](O)[C@H]1O[C@H]1O[C@H](CO)[C@@H](O)[C@H](N)[C@H]1O [Prestw-395],-0.645 ± 0.047
21,"CC(C)C1CCC(C(=O)N[C@H](Cc2ccccc2)C(=O)O)CC1 (stereo partly drawn) [NATEGLINIDE, antidiabetic]",0.496 ± 0.24
22,Fc1ccc([C@@H]2CCNC[C@H]2COc2ccc3c(c2)OCO3)cc1 [Prestw-851],-0.493 ± 0.51
23,O=c1[nH]cnc2c1ncn2[C@H]1CC[C@@H](CO)O1 [Prestw-153],-0.212 ± 1.9
24,"CN(C/C=C/C#CC(C)(C)C)Cc1cccc2ccccc12 [TERBINAFINE HYDROCHLORIDE, antifungal]",0.806 ± 1.1
25,NCCC[C@H](N)CC(=O)N[C@H]1CNC(=O)[C@H]([C@H]2C[C@H](O)NC(N)=N2)NC(=O)/C(=C/NC(N)=O)NC(=O)[C@H](CO)NC(=O)[C@H](CO)NC1=O [Prestw-1113],1.35 ± 1.6
26,C[C@H]1COc2c(N3CCN(C)CC3)c(F)cc3c(=O)c(C(=O)O)cn1c23 [Prestw-237],1.3 ± 0.85
